In publication PMC3983030, “Ras GTPase-Like Protein MglA, a Controller of Bacterial Social-Motility in Myxobacteria, Has Evolved to Control Bacterial Predation by Bdellovibrio” (PLoS Genetics, 2014) one finds binding data, which are given here for two molecules.

These are yes or no findings as the source states them, for the method shown. Binding can be weak; no strength is given. Where a sequence is shown, tags or fusion partners need not be part of it.

The assay deals with pKT25 Bd3125 (CdgA fused to the T25 fragment of adenylate cyclase) (Bdellovibrio bacteriovorus HD100) (UniProt Q6MIM9). Put plainly: two-hybrid; bacterial two-hybrid with T18 and T25 fragments of adenylate cyclase (pUT18C, pKT25, pKNT25); spot tests and beta-galactosidase assay.

B1: pUT18C-Bd2492 (Bd2492 fused to the T18 fragment of adenylate cyclase) (protein, UniProt Q6MKB3 1-353)
chain: MSTYIELEIQNLLNQGSDQNIDLAEVATRLVSSIESSPDHFTLDNITALSRFLIQSGNELVLVEFVLRHLENESFPIPWPYFLEALSAFSEELDEKSVRALIDGIEEDGAQEEASRSLALRQTIQSLGEWRSNRKYKIHKDYLNNKRLLLDQLITLRTQQLYEQEKSLLARLQKLYPGDSDIRREVNEHKQRYALEILSRRTPRSRGVKTEDFSPKDPETEQALQVLMQSMHEHAETDPSMAFDFAIAAYMLESYEDALSLLSFSDESETLIWFRLEVLLKCRRFVELLTDLAKVEVVFAHEPETFFATAYLRAQALWGLGQKHTAIEVMEGLLAARPHYRAASALLSIWGGQ
With B1, the binding entry is on record as “binds”.

B2: MglA (Bd3734) co-expressed in E. coli from plasmid pD2492N/3734 (natural protein, Bdellovibrio bacteriovorus HD100, UniProt Q6MH29 1-197, looked up)
chain: MSFINYNAKEIHCKVVYYGPSLGGKTTNIQWVYQKTAEDQKSKLVALNTDIERTLFFDFLPLNVGDIRGFKTRFHLYTVPGQVVYDASRKLILKGLDGVIFVADSQIERMDENLESLRNLERNLEQQGYDIREIPLIMQYNKRDLPNVASLAELRSALNPYNAPEIEGCASEGRGVFESLKTVSKSIINVLKGGTTL
notes: MglA (Bd3734) of Bdellovibrio bacteriovorus HD100; No tag is named on MglA in this construct; source: E. coli, heterologously co-expressed with Bd2492-His6 from plasmid pD2492N/3734
Take B2: the binding result is listed as “no binding”.
